# Measured values reported in patent US9572799B2, “Pyrazolopyridine derivatives for use in the treatment of bladder cancer” (SANOFI, priority 2013, dated 2017).
# Some results were stated once for a whole list of compounds, not compound by compound. For some assays here: At least one read-out could not be matched to a standard name with certainty.
# Tests used:
# [1] = test system: TCC97-7 bladder cancer cells carrying the Ser249Cys mutation of FGF-R3; experiment: Reduction of intracellular ATP content of TCC97-7 cells in serum-supplemented medium (Cell Titer-Glo); type: cell-based; settings: at the dose of 1 or 10 μM
# Description: Evaluation of the Capacity of FGF-R Antagonists to Reduce the ATP Content of TCC97-7 Bladder Cancer Cells Carrying the Ser249Cys Mutation of FGF-R3, Cultured in a Serum-Supplemented Medium
# To do this, 3000 cells are seeded in 50 μl of complete medium (Ham-F/12, 1% FCS, 2 mM glutamine, non-essential amino acids, sodium pyruvate, 1% insulin/transferrin/selenium, hydrocortisone). 16 hours later, 50 μl of the various compounds are added at 2 and 20 μM after dilution in complete culture medium in order to obtain final concentrations of 1 and 10 μM. After 3 days, the ATP content of the cells is measured using the Cell Titer-Glo® Luminescent Cell Viability Assay kit (Promega, France) according to the supplier's recommendations. The percentage inhibition of the amount of intracellular ATP is calculated by considering the ATP content of the cells cultured in the absence of antagonist to be 0% inhibition. 100% inhibition would correspond to a well in which the ATP content is zero.
# Thus, compounds 1 to 24 are capable of inhibiting the amount of intracellular ATP in TCC97-7 cells by more than 20% at the dose of 1 or 10 μM (Table No. 3).
# [2] = test system: bladder cancer tumour cells of TCC97-7 type carrying the Ser249Cys mutation of FGF receptor 3; experiment: Inhibition of serum-induced proliferation of TCC97-7 bladder cancer cells (cell-covered surface area, Incucyte); type: cell-based; settings: at the dose of 1 or 10 μM
# Description: Evaluation of the Capacity of the FGF-R Antagonists to Inhibit Serum-Induced Proliferation of Bladder Cancer Tumour Cells of TCC97-7 Type Carrying the Ser249Cys Mutation of FGF Receptor 3
# To do this, 2000 cells are seeded in the morning in 50 μl of complete medium (Ham-F/12, 1% FCS, 2 mM glutamine, non-essential amino acids, sodium pyruvate, 1% insulin/transferrin/selenium, hydrocortisone). In the evening, 50 μl of the various compounds are added at 2 or 20 μM after dilution in complete culture medium in order to obtain final concentrations of 1 or 10 μM. After 3 days, cell proliferation is evaluated by measuring the cell-covered surface area of a well of a 96 well plate. This surface area is measured using an Incucyte apparatus (Essen BioScience). The percentage inhibition of the cell proliferation is calculated by considering the surface area occupied by the TCC97-7 cells cultured in the absence of FGF-R antagonists to be 0% inhibition. 100% inhibition would correspond to a well no longer containing cells.
# Thus, compounds 1 to 24 are capable of inhibiting TCC97-7 cell proliferation by more than 20% at the dose of 1 or 10 μM. (Table No. 2).
smiles,measurement,setting,value
"Nc1ccc(-c2cc(C(F)(F)F)c3c(-c4ccccc4)n[nH]c3n2)cc1 [compound 16, 4-(3-Phenyl-4-trifluoromethyl-1H-pyrazolo[3,4-b]pyridin-6-yl)phenylamine]",inhibiting the amount of intracellular ATP in TCC97-7 cells,[1],more than 20%
same,inhibiting TCC97-7 cell proliferation,[2],more than 20%
